Assay results from article PMC11006888.
No constants are given. Whether binding was seen depends on the method and setting. Binding seen in cells or lysates may run through a third protein. Here binding means that the protein was enriched with, or labelled near, the bait; the list need not be complete. For part of these data: A no says only that the protein was not detected with the bait.

B1: SecY1 (protein, UniProt Q38885 68-551)
chain: SSEASVFDPLGINPDETSGLSSIWESFVSLLSPSFESSSGNRRDKPSSGRGVAAAIEDSSIDFGDFFKGPLPGKFLKLLGFLALSRLGIYIPLGGVNREAFVGNLDQNSILSTLDTFSGGGIGRLGICSLGIVPFINAQIVFQLLAQVYPKLQDLQKKEGEAGRKKILQYTRYASVGFAIVQAIGQVFYLRPYVNDFSTEWVVSSVTLLTLGSVLTTYIGERISDLKLGNGTSLLIFTSIISYLPASFGRTTAEALQEGNYTGLGTIVVSFLLLVLGIVYVQEAERKIPLNYASRYTSKAGGLQKSAYLPFKVNSAGVMPIIFSTSSLALPATLARFTGISALKNVAFALTPGGSFYLPTNILLIAFFNYYYTFLQLDPDDVSEQLKRQGASIPLVRPGKSTALFIKTVLGRISVLGSAFLAVLAAGPAVVEQITHLTAFRGFAGTSVLILVGCATDTARKVQAEIISQKYKNIEFYELDKYDP
B2: Alb3 (protein, UniProt Q8LBP4 57-462)
chain: SLNEIPPFHGLDSSVDIGAIFTRAESLLYTIADAAVVGADSVVTTDSSAVQKSGGWFGFISDAMELVLKILKDGLSAVHVPYAYGFAIILLTIIVKAATYPLTKQQVESTLAMQNLQPKIKAIQQRYAGNQERIQLETSRLYKQAGVNPLAGCLPTLATIPVWIGLYQALSNVANEGLFTEGFFWIPSLGGPTSIAARQSGSGISWLFPFVDGHPPLGWYDTVAYLVLPVLLIASQYVSMEIMKPPQTDDPAQKNTLLVFKFLPLMIGYFALSVPSGLSIYWLTNNVLSTAQQVYLRKLGGAKPNMDENASKIISAGRAKRSIAQPDDAGERFRQLKEQEKRSKKNKAVAKDTVELVEESQSESEEGSDDEEEEAREGALASSTTSKPLPEVGQRRSKRSKRKRTV
B3: cpSRP54 (protein, UniProt P37107 76-564)
chain: EMFGQLTGGLEAAWSKLKGEEVLTKDNIAEPMRDIRRALLEADVSLPVVRRFVQSVSDQAVGMGVIRGVKPDQQLVKIVHDELVKLMGGEVSELQFAKSGPTVILLAGLQGVGKTTVCAKLACYLKKQGKSCMLIAGDVYRPAAIDQLVILGEQVGVPVYTAGTDVKPADIAKQGLKEAKKNNVDVVIMDTAGRLQIDKGMMDELKDVKKFLNPTEVLLVVDAMTGQEAAALVTTFNVEIGITGAILTKLDGDSRGGAALSVKEVSGKPIKLVGRGERMEDLEPFYPDRMAGRILGMGDVLSFVEKATEVMRQEDAEDLQKKIMSAKFDFNDFLKQTRAVAKMGSMTRVLGMIPGMGKVSPAQIREAEKNLLVMEAMIEVMTPEERERPELLAESPERRKRIAKDSGKTEQQVSALVAQIFQMRVKMKNLMGVMEGGSIPALSGLEDALKAEQKAPPGTARRKRKADSRKKFVESASSKPGPRGFGSGN
B4: FtsY (protein, UniProt O80842 41-366)
chain: CSAGPSGFFTRLGRLIKEKAKSDVEKVFSGFSKTRENLAVIDELLLFWNLAETDRVLDELEEALLVSDFGPKITVRIVERLREDIMSGKLKSGSEIKDALKESVLEMLAKKNSKTELQLGFRKPAVIMIVGVNGGGKTTSLGKLAHRLKNEGTKVLMAAGDTFRAAASDQLEIWAERTGCEIVVAEGDKAKAATVLSKAVKRGKEEGYDVVLCDTSGRLHTNYSLMEELIACKKAVGKIVSGAPNEILLVLDGNTGLNMLPQAREFNEVVGITGLILTKLDGSARGGCVVSVVEELGIPVKFIGVGEAVEDLQPFDPEAFVNAIFS

molecular target: T1, YCF4 (Arabidopsis thaliana (endogenous in thylakoids)) (UniProt P56788); experiment: affinity purification with mass spectrometry; precipitates of not cross-linked, β-DM-solubilised wild-type thylakoids with FPB1, PAM68 and YCF4 antibodies and preimmune serum; LC-MS/MS of gel slices
T1 sequence: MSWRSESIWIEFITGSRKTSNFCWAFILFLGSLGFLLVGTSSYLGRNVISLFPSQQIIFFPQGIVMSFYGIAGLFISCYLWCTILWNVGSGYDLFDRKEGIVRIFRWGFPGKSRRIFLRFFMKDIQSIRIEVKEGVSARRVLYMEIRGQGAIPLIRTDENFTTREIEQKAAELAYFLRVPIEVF

Binder	binding
B1	no binding
B2	no binding

molecular target: FPB1 (Facilitator of PsbB biogenesis1) (Arabidopsis thaliana (endogenous in thylakoids)); experiment: as above

Binder	binding
B1	binds
B2	binds
B3	binds
B4	binds
